In PubChem BioAssay AID445 (National Center for Advancing Translational Sciences (NCATS), 2006):
The list shows a part of the results. Shown are side measurements of this screen, not its main read-out; they come without a call. The list favours compounds with an active or inconclusive main result. Potencies come from curve fits of mixed quality, noted in brackets.

Assay: IkB Signaling
Details: ABC-DLBCL IkBa-CBG/CBR dual luciferase ratio (green luciferase fused to IkBa over red control in OCI-Ly3 lymphoma cells), 4 h
Procedure, shortened: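 Curves were fitted separately to fusion (green), unfused (red) and ratio luminescence, then classed by r2, magnitude and activity. Cells: OCI-Ly3, 4 h compound plus doxycycline at 37C; 10 uM MG-132 defined full response.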

[1] = measured here: control luc red channel unless noted

COc1ccc2nc3oc(C(=O)N4CCC(C(N)=O)CC4)cc3cc2c1
AC50 [1]: 6.31 µM [falling, partial curve]

CC(C)(C)c1ccc(C(=O)CSc2ncn[nH]2)cc1
AC50 [1]: 25.1 µM [falling, partial curve]

CC(=O)N1CCCC1c1nc2ccccc2n1Cc1ccccc1Cl (stereo not drawn)
AC50 [1]: 7.94 µM [falling, partial curve]

CCS(=O)(=O)N1CCCc2cc(C(=O)Nc3cccc(C(C)=O)c3)ccc21
AC50 [1]: 25.1 µM [falling, single point]

COc1cc(NC(=O)c2cccc(Cl)c2Cl)ccc1NC(=O)c1cc2ccccc2o1
AC50 [1]: 0.794 µM [falling, full curve]

CCOc1ccc(C(=O)C2CCN(CC(=O)Nc3ccccc3N3CCOCC3)CC2)cc1
AC50 [1]: 25.1 µM [falling, partial curve]

CCC(=O)N1CCc2cc(Br)cc(S(=O)(=O)CCC(=O)Nc3cccc(Cl)c3)c21
AC50 [1]: 31.6 µM [falling, single point]

Clc1ccc(-c2nnn3c2nc(NC2CCCCC2)c2ccccc23)cc1
AC50 [1]: 0.631 µM [falling, full curve]

CCOc1ccc(C(=O)N(Cc2ccc(C(C)C)cc2)Cc2ccco2)cc1
AC50 [1]: 39.8 µM [falling, single point]

O=C(CCN1c2ccccc2Sc2ccccc21)OCC(=O)N1CCN(C(=O)c2ccco2)CC1
AC50 [1]: 25.1 µM [falling, partial curve]

CCOC(=O)C1CCCCN1C(=O)CCc1c(C)nc2cc(-c3ccccc3)nn2c1C (stereo not drawn)
AC50 [1]: 1.26 µM [falling, partial curve]

Cc1ccc(NC(=O)CCCc2nc(-c3ccco3)no2)cc1Cl
AC50 [1]: 31.6 µM [falling, partial curve]

COc1ccc(-c2noc(CCC(=O)N(C)c3cc(Cl)ccc3OC)n2)cc1
AC50 [1]: 39.8 µM [falling, single point]

COc1ccc(NS(=O)(=O)c2ccc(N3CCCCS3(=O)=O)cc2)cc1Cl
AC50 [1]: 39.8 µM [falling, partial curve, poor fit]

CCc1nn(C(CC)C(=O)NCc2ccc(OC)c(OC)c2)c(=O)c2cc3oc(C)cc3n12 (stereo not drawn)
AC50 [1]: 20 µM [falling, single point]

Cc1nn(-c2nc(-c3ccccc3)cc(C(F)(F)F)n2)c(C)c1Cl
AC50 [1]: 20 µM [falling, partial curve]

Cc1ccc(OCCSc2nc(-c3ccccc3C)nc3cc(=O)[nH]n23)cc1Cl
AC50 [1]: 25.1 µM [falling, partial curve]

CCCCNC(=O)c1cccc(NC(=O)c2nsc3ccccc23)c1
AC50 [1]: 0.1 µM [rising, full curve]

CCOc1ccc2c(c1)c(=O)c(C(=O)c1ccc3c(c1)OCO3)cn2Cc1ccc(F)cc1
AC50 [1]: 20 µM [falling, single point]

COc1cc(/C=C(\C#N)c2nc3ccc(C)cc3[nH]2)ccc1OCc1ccc(C)cc1
AC50 [1]: 15.8 µM [falling, partial curve]

CCc1ccc(C2C(C(=O)Nc3ccccc3OC)=C(C)Nc3c(C(=O)Nc4ccc(C)cc4)cnn32)cc1 (stereo not drawn)
AC50 [1]: 2.51 µM [falling, partial curve]

CCN(C(=O)c1cn(-c2cccc(OC)c2)c(=O)c2ccccc12)c1ccccc1C
AC50 [1]: 15.8 µM [falling, partial curve]

Cc1ccc(C)c(NC(=O)CSc2nccn2-c2cccc(C)c2C)c1
AC50 [1]: 25.1 µM [falling, partial curve, poor fit]

CC(=O)c1cc2c(cc1NC(=O)c1ccc(-n3nc(C)cc3C)cc1)OCO2
AC50 [1]: 0.0631 µM [falling, full curve, poor fit]

O=C(CSc1nnc(-c2ccco2)o1)N1c2ccccc2CCc2ccccc21
AC50 [1]: 5.01 µM [falling, partial curve]

COc1ccc(OC)c(NC(=O)c2oc(=O)c3ccccc3c2-c2ccccc2)c1
AC50 [1]: 31.6 µM [falling, single point]

COc1ccc(CC(=O)N2CCc3cc(OC)c(OC)cc3C2COc2ccc(F)cc2)cc1 (stereo not drawn)
AC50 [1]: 39.8 µM [falling, single point]

Cn1nc(-c2ccccc2F)c2cc(C(=O)NCc3ccccc3Cl)sc21
AC50 [1]: 12.6 µM [falling, partial curve]

COc1ccc(N2CCN(S(=O)(=O)c3ccc(F)c(C(=O)Nc4ccccc4Cl)c3)CC2)cc1
AC50 [1]: 2 µM [falling, partial curve]

CCOc1ccc(NCc2cccn2-c2nnc(N3CCC(C(=O)NCc4ccccc4Cl)CC3)s2)cc1
AC50 [1]: 15.8 µM [falling, partial curve, poor fit]

CC(C)(C)OC(=O)N1CCC(c2c(C(=O)NCc3cccs3)cnn2-c2cccc(F)c2)CC1
AC50 [1]: 20 µM [falling, partial curve]

COc1ccc(C(=O)Nc2nncs2)cc1S(=O)(=O)N1CC(c2ccccc2)CC1=O (stereo not drawn)
AC50 [1]: 3.98 µM [falling, full curve]

CC(C)COc1cccc(C(=O)Nc2ccc(S(=O)(=O)N3CCOCC3)cc2)c1
AC50 [1]: 20 µM [falling, partial curve]

CCN(CC)S(=O)(=O)c1cccc(C(=O)Nc2ccccc2C(=O)Nc2ccc(Cl)cc2)c1
AC50 [1]: 20 µM [falling, partial curve]

CC(=O)c1ccc(NC(=O)c2cc(C)nn2-c2ccccc2)cc1
AC50 [1]: 39.8 µM [falling, single point]

COCCN(CCOC)S(=O)(=O)c1ccc(C(=O)Nc2sc3c(c2C(=O)OC)CCN(C)C3)cc1
AC50 [1]: 3.16 µM [falling, partial curve, poor fit]

CCOc1cccc(C(=O)Nc2ccc(-c3nc4ncccc4o3)cc2C)c1
AC50 [1]: 0.0398 µM [falling, full curve, poor fit]

CCCCN(CCCNC(=O)c1cc(Nc2cccc(SC)c2)nc2ccccc12)Cc1ccccc1
AC50 [1]: 5.01 µM [falling, full curve]

CN(C)S(=O)(=O)N(CC(=O)NCCSCc1c(F)cccc1Cl)c1ccccc1
AC50 [1]: 15.8 µM [falling, partial curve]

CCCN1CCN(CCCNC(=O)c2cc3c(=O)n(CC)c4ccccc4c3s2)CC1
AC50 [1]: 7.94 µM [falling, partial curve]

CCOC(=O)N1CCc2c(sc3c2C(=O)NC(c2ccc(N(C)C)cc2)N3)C1 (stereo not drawn)
AC50 [1]: 3.16 µM [rising, full curve]

Brc1ccc(-c2nc(-c3ccccn3)no2)o1
AC50 [1]: 10 µM [falling, partial curve]

O=Nc1ccc2oc(=O)ccc2c1
AC50 (measured here: IkB-luc green channel): 31.6 µM [falling, partial curve, poor fit]
AC50 (measured here: control luc red channel): 10 µM [falling, partial curve]

CC(=O)Nc1ccc(/C=C/c2noc(-c3ccccc3O)n2)cc1
AC50 [1]: 39.8 µM [falling, single point]

CCc1nnc(NC(=O)c2cc(=O)c3cc(C)ccc3o2)s1
AC50 [1]: 0.398 µM [rising, full curve, poor fit]

CCC(C)(C)NC(=O)C(c1cccn1C)N(C(=O)Cn1nnc2ccccc21)c1ccc(OC)cc1 (stereo not drawn)
AC50 [1]: 31.6 µM [falling, partial curve]

Cc1ccc(C)c(N2CCN(C(=O)Cn3cnc4onc(-c5ccc(F)cc5)c4c3=O)CC2)c1
AC50 [1]: 12.6 µM [falling, partial curve]

Cc1ccc(S(=O)(=O)CC(=O)Nc2nc3c(C)cc(C)cc3s2)cc1
AC50 [1]: 31.6 µM [falling, partial curve]

Cc1ccc(NC(=O)Nc2ccc(F)cc2)nc1
AC50 [1]: 15.8 µM [falling, single point]

COc1cccc(NC(=O)c2cccc3c(=O)c4c([nH]c23)CCCC4)c1
AC50 [1]: 0.01 µM [rising, full curve]

NC(=O)C1(N2CCCCC2)CCN(C(=O)c2ccc(C#Cc3ccccc3)o2)CC1
AC50 [1]: 15.8 µM [falling, partial curve]

CCOc1ccc(OCC)c(NC(=O)c2cc(S(=O)(=O)N3CCc4ccccc43)cn2C)c1
AC50 [1]: 10 µM [falling, partial curve]

O=C(CSc1nnc(-c2cccnc2)n1Cc1ccco1)c1ccc(Br)cc1
AC50 [1]: 15.8 µM [falling, partial curve]

Cc1cc(C)cc(NC(=O)C(Cc2ccccc2)NS(=O)(=O)c2ccc3c(c2)CCC(=O)N3)c1 (stereo not drawn)
AC50 [1]: 31.6 µM [falling, partial curve, poor fit]

CCOc1ccccc1NC(=O)C(=O)Nc1ccc2nc3n(c(=O)c2c1)CCCCC3
AC50 [1]: 2 µM [falling, full curve]

CCOC(=O)C1(C)C=C(Nc2cccc(C(=O)O)c2)C(=O)N1c1ccccc1 (stereo not drawn)
AC50 [1]: 2.51 µM [falling, partial curve]

Cc1ccc(CNC(=O)C(=O)NCC(c2ccc3c(c2)OCO3)N2CCOCC2)cc1 (stereo not drawn)
AC50 [1]: 20 µM [falling, partial curve, poor fit]

COc1ccccc1N1CCN(C(=O)C2CCCN(S(=O)(=O)c3ccc4c(c3)CCCN4C(C)=O)C2)CC1 (stereo not drawn)
AC50 [1]: 39.8 µM [falling, single point]

Cn1nc(CC(=O)Nc2ccc(N3CCN(C(=O)OC(C)(C)C)CC3)cc2)c2ccccc2c1=O
AC50 [1]: 6.31 µM [falling, partial curve]

COc1cc(Cl)c(C)cc1NC(=O)c1cnc(N2CCCCC2)c2ccccc12
AC50 [1]: 20 µM [falling, partial curve]

CC(C)Cn1c(-c2cccc(Br)c2)nc2ccccc21
AC50 [1]: 25.1 µM [falling, single point]

O=C(CSc1nc(-c2cccc(F)c2)[nH]c1-c1ccccc1)Nc1ccc2c(c1)OCO2
AC50 [1]: 15.8 µM [falling, partial curve]
